Values quoted from earlier work as cited in patent publication US20100137232A1 (priority 2004, published 2010).

Tested on: plasma proteins, mainly albumin
Settings: cited from earlier work

NS(=O)(=O)c1cc(C(=O)O)c(NCc2ccco2)cc1Cl [Frusemide, 4-chloro-N-furfuryl-5-sulfamoylanthranilic acid]
unbound fraction (at therapeutic concentrations): 2.3-4.1%
bound to plasma proteins (plasma concentrations ranging from 1 to 400 μg/ml, healthy individuals): 91-99%
